From PubChem BioAssay AID504467 (National Center for Advancing Translational Sciences (NCATS), 2011)
In all, about 330,000 compounds went through this assay and about 7,700 (2.3%) were called active. This list was built around the results that the source calls inconclusive (neither active nor inactive); the mix of calls is not that of the screen. Calls come from the whole dose curve; as a rule, active = well fitted inhibition curve with a large enough effect; inconclusive = small, poorly fitted or top-dose-only effect, or effect the other way; inactive = flat fitted curve, though single readings scatter. Potencies beside an inconclusive call are fits to weak or partial responses and may not hold up.

Test: qHTS screen for small molecules that inhibit ELG1-dependent DNA repair in human embryonic kidney (HEK293T) cells expressing luciferase-tagged ELG1; note: nearly all actives have a fitted effect of over 55% in size
Settings: HEK293T ELG1-luciferase reporter, luminescence, 16 h, DNA damage induced by 5-fluorouridine; activity change, negative = inhibition: at 46.1 µM (top of the series)
How it was run: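 Reporter activity after DNA damage by 5-fluorouridine is monitored. Compound-treated cells incubate 16 hr at 37 °C, then ONE-Glo is added for 30 min before luminescence reading.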
% is set by controls: 0 for no effect and ±100 for the full control effect; potency is the fitted concentration of half-maximal effect.

SMILES	Potency	activity change, negative = inhibition
CC(=O)Oc1ccc2ccccc2c1C(NC(=O)C(C)C)c1cccc([N+](=O)[O-])c1 (stereo not drawn)	inconclusive: 18.4 µM [inhibitor, single point]	
COc1ccc2cc3cc(C(=O)N4CCCCC4C)oc3nc2c1 (stereo not drawn)	inconclusive: 2.59 µM [activator, partial curve]	
Cc1cc(=O)oc2cc(OCc3ccc(C(=O)N4CCN(c5ccccc5)CC4)cc3)ccc12	inconclusive: 23.1 µM [inhibitor, single point]	
Cc1ccc(N=Nc2c(C)[nH]n(C(N)=S)c2=O)cc1	inconclusive: 2.59 µM [activator, full curve]	
CCc1ccc(OCC(=O)N2CC(C(N)=O)Oc3ccccc32)cc1 (stereo not drawn)		inactive: -19.3%
CN(C)c1ccc(N=Nc2ccccc2C(=O)OCC(=O)N(C)C2CCCCC2)cc1		inactive: -16.9%
CN(C)c1ccc(-c2nc3ccccc3n2C)cc1	inconclusive: 0.58 µM [activator, partial curve, poor fit]	
Cc1ccc(-c2noc(-c3ccccc3Br)n2)cc1	inconclusive: 2.91 µM [activator, full curve]	
Cc1cc(C)n2nc(C(=O)OCC(=O)Nc3ccc(C)c(F)c3)nc2n1	inconclusive: 18.3 µM [activator, partial curve, poor fit]	
C=CCOC(=O)C(=O)/C=C/c1csc2ccccc12	inconclusive: 23.1 µM [activator, single point]	
COc1ccc(C=O)cc1COc1ccc(F)cc1F		inactive: -3.88%
O=C(/C=C/c1ccco1)Nc1ccccc1C(=O)O	inconclusive: 10.3 µM [activator, partial curve]	
COc1cccc(S(=O)(=O)NC2CCN(C#N)C2)c1 (stereo not drawn)		inactive: 24%
COc1cc(-c2nnc3n2N=C(c2ccccc2)CS3)cc(OC)c1OC	active: 9.2 µM	
OC(COc1ccc(OCc2ccccc2)cc1)CN1CCCCC1 (stereo not drawn)	inconclusive: 17.8 µM [activator, partial curve, poor fit]	
COc1cccc(C(=O)NCC(=O)N2CCN(c3ccc(C(F)(F)F)cn3)CC2)c1		inactive: -20.3%
Cc1ccc(C(=O)N/N=C\c2cccs2)cn1	inconclusive: 29.1 µM [activator, single point]	
Cc1cccc(C(=O)N2CCN(c3ccc(C(F)(F)F)cn3)CC2)c1C	inconclusive: 29.1 µM [inhibitor, single point]	
O=C(Cc1cccs1)Nc1nnc(CCc2ccccc2)s1		inactive: 5.84%
CN1C2=CC=CC=CC2=[N+](C)C12C([N+](=O)[O-])=CC(=[N+]([O-])[O-])C=C2[N+](=O)[O-] (stereo not drawn)		inactive: -0.788%
C=CCn1c(SCC(=O)Nc2ccc3c(c2)OCCO3)nnc1-c1ccccn1	inconclusive: 29.1 µM [inhibitor, single point]	
Cc1ccc(S(=O)(=O)N2C[C@@H]3[C@H]4CC[C@H](C4)[C@@H]3[C@@H](C)[C@@H]2c2cccn2Cc2ccccc2)cc1		inactive: -10.3%
CCOC(=O)N1CCN(S(=O)(=O)c2ccc(C(=O)N(CCCN(C)C)c3nc4ccc(CC)cc4s3)cc2)CC1		inactive: 14.2%
CC(=O)c1cccc(OC(=O)C2=CC=CN3CCS(=O)(=O)N=C23)c1		inactive: 2.61%
CCOc1ccc(OCC)c(NC(=O)CSc2nc3ccccc3c(=O)n2C)c1	inconclusive: 23.1 µM [inhibitor, partial curve]	

SMILES	Potency	activity change, negative = inhibition
CCOC(=O)Cc1csc(NC(=O)Nc2ccc(F)cc2)n1	active: 7.3 µM	
Cc1cnc(C(=O)N(CC(C)C)c2c(N)n(CC(C)C)c(=O)[nH]c2=O)cn1		inconclusive: 102% [activator]
CCCn1c(N)c(C(=O)CN(C)CC(=O)Nc2ccc(F)cc2)c(=O)[nH]c1=O	inconclusive: 29.1 µM [inhibitor, single point]	
C/C(=N\NC(=O)CNc1cccc2ccccc12)c1ccc(Br)s1		inactive: 6.87%
COC(=O)c1ccc(OC(=O)c2ccccn2)cc1		inactive: -0.318%
COc1ccc(NC(=S)NC(NC(=O)c2cccc(Cl)c2)C(Cl)(Cl)Cl)c([N+](=O)[O-])c1 (stereo not drawn)	active: 16.4 µM	
O=C(Nc1ccc(/C=C/c2nc3ccccc3o2)cc1)c1c(F)cccc1F	inconclusive: 2.06 µM [activator, partial curve]	
COC(=O)COc1ccc2c(=O)c(-c3ccccc3OC)coc2c1		inactive: -3.31%
O=C(c1ccoc1)N1CCCC(N2CCN(c3cccc(Cl)c3)CC2)C1 (stereo not drawn)		inactive: -2.3%
COc1ccc(C2c3ccc(O)cc3Oc3ncn4nc(-c5cccnc5)nc4c32)cc1OC (stereo not drawn)	active: 10.3 µM	
Nc1c(C(=O)Nc2ccc(Cl)cc2)oc2ccccc12	inconclusive: 1.84 µM [activator, full curve, poor fit]	
CC(=O)Nc1nnc(-c2c(-c3c(Cl)cccc3Cl)noc2C)o1		inactive: 4.61%
CCOc1ccc(NC(=S)NCCCN2CCN(c3ccc(OC)cc3)CC2)cc1	inconclusive: 29.1 µM [inhibitor, single point]	
CCN1C(=O)/C(=C/N2CCc3ccccc32)SC1=S	inconclusive: 4.61 µM [activator, full curve]	
COc1cc(OC)c(OC)cc1CNc1cc(C)ccc1OC	inconclusive: 14.6 µM [inhibitor, partial curve, poor fit]	
Cc1cc(-c2ccc(F)cc2)nc2cc(C(N)=O)nn12	inconclusive: 29.1 µM [inhibitor, single point]	
Cc1nc2ccc(NC(=O)Cc3ccccc3F)cc2s1	inconclusive: 2.06 µM [activator, partial curve]	
CC1=C[C@H]2OC(=O)[C@@H](C)[C@H]2C[C@@H]2[C@H]1C[C@@H](O)[C@@]2(C)O		inactive: 4.05%
Cc1ccc(S(=O)(=O)c2nnn3c2nc(NC2CCN(Cc4ccccc4)CC2)c2ccccc23)cc1C		inactive: -14.4%
O=C1CN(C(=O)CSc2nc(-c3ccc(Cl)cc3)cs2)c2ccccc2N1	inconclusive: 16.4 µM [inhibitor, partial curve, poor fit]	
Cc1c(CCC(=O)O)c(=O)oc2cc3occ(-c4ccc(Cl)cc4)c3cc12		inactive: -10.3%
CC(NC(=O)C1CCCN(C(=O)c2ccc(Cl)cc2)C1)c1cccc(C(F)(F)F)c1 (stereo not drawn)	inconclusive: 0.58 µM [activator, partial curve, poor fit]	
CCCCn1c(N)c(C(=S)NC(=O)CC(C)C)c(=O)n(C)c1=O		inactive: 1.67%
O=c1[nH]c(=S)[nH]c2nc(-c3cccs3)cc(C(F)(F)F)c12		inactive: -3.69%
Cc1cc(C)c2c(=O)[nH]n(C(C)C)c2n1	inconclusive: 23.1 µM [activator, partial curve]	

SMILES	Potency	activity change, negative = inhibition
COc1ccccc1NC(=O)c1cnc(SC)nc1	inconclusive: 16.4 µM [activator, partial curve, poor fit]	
O=C(CSc1ccsc1[N+](=O)[O-])NCc1ccco1		inactive: 21.1%
CC(NC(=O)[C@H](C)NC(=O)[C@@H]1CSC2c3ccccc3C(=O)N21)c1ccccc1 (stereo partly drawn)		inactive: -0.483%
O=C(NCCc1c[nH]c2ccccc12)C(F)(F)F	inconclusive: 0.82 µM [activator, full curve, poor fit]	
CCCn1c2ccc(F)cc2c2nnc(NN)nc21	inconclusive: 20.6 µM [inhibitor, single point]	
O=[N+]([O-])c1cccc(-c2nc(-c3ccccn3)no2)c1	inconclusive: 2.59 µM [activator, full curve]	
CC(C)N(Cc1nc(-c2ccc(Cl)cc2)no1)C(=O)CN(C)S(=O)(=O)c1ccc(Cl)cc1	inconclusive: 3.66 µM [inhibitor, partial curve, poor fit]	
CC(=O)c1ccc2oc3ccccc3c(=O)c2c1	inconclusive: 13 µM [activator, partial curve]	
CCCCCCCCCCCCCCCC[n+]1cccc2ccccc21	active: 13 µM	
COc1ccc(NC(=S)N2CCN(C(=O)c3ccccc3)CC2)cc1		inactive: 15.5%
CCOC(=O)N1CCN(C(=O)COc2ccccc2[N+](=O)[O-])CC1		inactive: 3.44%
Cc1nn(-c2ccccc2)c(C)c1NC(=O)COC(=O)c1ccccc1	inconclusive: 29.1 µM [activator, single point]	
CCc1ccc(NC(=S)N2CCNC(=O)C2CC(=O)OC)cc1 (stereo not drawn)		inactive: -1.91%
O=C(N[C@H]1CCCCNC1=O)c1cc(COc2ccc(F)cc2F)on1	inconclusive: 16.4 µM [activator, single point]	
Cc1cc(CCCCCCCCc2cc(C)cc(=O)o2)oc(=O)c1		inactive: -7.98%
Cc1[nH]c2ccccc2c1C(=O)CSC(=S)N1CCOCC1	inconclusive: 23.1 µM [activator, single point]	
COc1ccc(S(=O)(=O)NCCOc2ccccc2)cc1OC		inactive: 18.5%
Cc1nn(-c2ccccc2)c(N)c1Sc1ccc([N+](=O)[O-])cc1	inconclusive: 23.1 µM [inhibitor, single point]	
COCc1ccc2oc(C(=O)O)cc2c1	inconclusive: 11.6 µM [activator, partial curve, poor fit]	
CCc1noc(C)c1C(=O)Nc1nc(-c2ccc(NC(C)=O)cc2)cs1	inconclusive: 29.1 µM [inhibitor, single point]	
CC1N(C)c2cc(NC(=O)c3cccs3)c(P(=O)(Nc3ccc([N+](=O)[O-])cc3)N3CCOCC3)cc2C1(C)C (stereo not drawn)	active: 18.3 µM	
COCCSc1nnc(NC(=O)C2CCCCC2)s1	inconclusive: 13 µM [activator, partial curve, poor fit]	
C/C(=N\NC(=S)NCCc1ccccc1)c1ccc(C)cc1	inconclusive: 25.9 µM [inhibitor, partial curve, poor fit]	

For convenience, 5 of the compounds above:
SMILES	Potency	activity change, negative = inhibition
Cc1cc(-c2ccc(F)cc2)nc2cc(C(N)=O)nn12	inconclusive: 29.1 µM [inhibitor, single point]	
Cc1nc2ccc(NC(=O)Cc3ccccc3F)cc2s1	inconclusive: 2.06 µM [activator, partial curve]	
CC1=C[C@H]2OC(=O)[C@@H](C)[C@H]2C[C@@H]2[C@H]1C[C@@H](O)[C@@]2(C)O		inactive: 4.05%
Cc1ccc(S(=O)(=O)c2nnn3c2nc(NC2CCN(Cc4ccccc4)CC2)c2ccccc23)cc1C		inactive: -14.4%
O=C1CN(C(=O)CSc2nc(-c3ccc(Cl)cc3)cs2)c2ccccc2N1	inconclusive: 16.4 µM [inhibitor, partial curve, poor fit]	
